“Also recorded” adds a separate entry of the source.
Tested on: 2D12.5
Assay: Time-resolved terbium luminescence of Tb-DOTA bound to 2D12.5
Set-up: species or system mouse
Conditions: 280 nm/UV excitation; relative to unbound Tb-DOTA

In the case of O=C([O-])CN1CCN(CC(=O)[O-])CCN(CC(=O)[O-])CCN(CC(=O)[O-])CC1.[Tb+3] [Tb-DOTA], the “enhancement of green terbium luminescence (545 nm emission) on binding to 2D12.5” value is reported as “approximately four orders of magnitude; also recorded: marked, linear enhancement”.

Reference: patent publication US20090093618A1, “STREPTAVIDIN-BIOTIN-LINK ANTIBODY-HAPTEN SYSTEM” (The Regents OF THE UNIVERSITY OF CALIFORNA, priority 2006, published 2009)
